# Results as given in the supplement of paper PMC8728848.
# The other results are listed elsewhere or left out.
# B1: Aap brpt (Staphylococcus epidermidis) (protein)
# chain: VDGDPITSTEEIPFDKKREFDPNLAPGTEKVVQKGEPGTKTITTPTTKNPLTGEKVGEGEPTEKITKQPVDEIVHYGGEEIKTGHKDEFDPNAPKGSQTTQPGKPGVKNPDTGEVVTPPVDDVTKYGPVDGDPITSTEEIPFDKKREFDPNLAPGTEKVVQKGEPGTKTITTPTTKNPLTGEKVGEGEPTEKITKQPVDEIVHYGGEEIKPGHKDEFDPNAPKGSQEDVPGKPGVKNPDTGEVVTPPVDDVTKYGPVDGDSITSTEEIPFDKKREFDPNLAPGTEKVVQKGEPGTKTITTPTTKNPLTGEKVGEGEPTEKITKQPVDEIVHYGGEQIPQGHKDEFDPNAPVDSKTEVPGKPGVKNPDTGEVVTPPVDDVTKYGPVDGDSITSTEEIPFDKKREFDPNLAPGTEKVVQKGEPGTKTITTPTTKNPLTGEKVGEGKSTEKVTKQPVDEIVEYGPTK
# Legend:
# Test in all cases: glycan array binding signal (z-score within array); higher = stronger binding
# Details in all cases: glycan notation: IUPAC condensed, linker removed
# [1] = target: Gal(b1-4)GlcNAc(b1-3)Gal(b1-4)GlcNAc(b1-2)[Gal(b1-4)GlcNAc(b1-3)Gal(b1-4)GlcNAc(b1-6)]Man(a1-6)[Gal(b1-4)GlcNAc(b1-3)Gal(b1-4)GlcNAc(b1-2)Man(a1-3)]Man(b1-4)GlcNAc(b1-4)GlcNAc
# In short: (§1)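 Negative Z-scores can be read as non-binding. The Z-score is calculated within each array and then averaged across arrays of one protein sequence at different concentrations or buffers and across linkers. Arrays, 3228 in all, were curated from the Consortium for Functional Glycomics database and kept only where the protein sequence was available.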
# [2] = target: Gal(b1-4)GlcNAc(b1-3)Gal(b1-4)GlcNAc(b1-2)[Gal(b1-4)GlcNAc(b1-3)Gal(b1-4)GlcNAc(b1-6)]Man(a1-6)[Gal(b1-4)GlcNAc(b1-3)Gal(b1-4)GlcNAc(b1-2)Man(a1-3)]Man(b1-4)GlcNAc(b1-4)[Fuc(a1-6)]GlcNAc
# In short: as §1
# [3] = target: Gal(b1-4)GlcNAc(b1-3)Gal(b1-4)GlcNAc(b1-3)Gal(b1-4)GlcNAc
# In short: as §1
# [4] = target: Gal(b1-4)GlcNAc(b1-3)Gal(b1-4)GlcNAc(b1-3)Gal(b1-4)GlcNAc(b1-2)Man(a1-3)[Gal(b1-4)GlcNAc(b1-3)Gal(b1-4)GlcNAc(b1-3)Gal(b1-4)GlcNAc(b1-2)Man(a1-6)]Man(b1-4)GlcNAc(b1-4)GlcNAc
# In short: as §1
# [5] = target: Gal(b1-4)GlcNAc(b1-3)Gal(b1-4)GlcNAc(b1-3)Gal(b1-4)GlcNAc(b1-2)Man(a1-3)[Gal(b1-4)GlcNAc(b1-3)Gal(b1-4)GlcNAc(b1-3)Gal(b1-4)GlcNAc(b1-2)Man(a1-6)]Man(b1-4)GlcNAc(b1-4)[Fuc(a1-6)]GlcNAc
# In short: as §1
# [6] = target: Gal(b1-4)GlcNAc(b1-3)Gal(b1-4)GlcNAc(b1-3)Gal(b1-4)GlcNAc(b1-2)[Gal(b1-4)GlcNAc(b1-3)Gal(b1-4)GlcNAc(b1-3)Gal(b1-4)GlcNAc(b1-6)]Man(a1-6)[Gal(b1-4)GlcNAc(b1-3)Gal(b1-4)GlcNAc(b1-3)Gal(b1-4)GlcNAc(b1-2)Man(a1-3)]Man(b1-4)GlcNAc(b1-4)[Fuc(a1-6)]GlcNAc
# In short: as §1
# [7] = target: Gal(b1-4)GlcNAc(b1-3)Gal(b1-4)GlcNAc(b1-3)Gal(b1-4)GlcNAc(b1-3)Gal(b1-4)GlcNAc(b1-2)Man(a1-3)[Gal(b1-4)GlcNAc(b1-3)Gal(b1-4)GlcNAc(b1-3)Gal(b1-4)GlcNAc(b1-3)Gal(b1-4)GlcNAc(b1-2)Man(a1-6)]Man(b1-4)GlcNAc(b1-4)GlcNAc
# In short: as §1
# [8] = target: Gal(b1-4)GlcNAc(b1-3)Gal(b1-4)GlcNAc(b1-3)Gal(b1-4)GlcNAc(b1-3)Gal(b1-4)GlcNAc(b1-2)Man(a1-3)[Gal(b1-4)GlcNAc(b1-3)Gal(b1-4)GlcNAc(b1-3)Gal(b1-4)GlcNAc(b1-3)Gal(b1-4)GlcNAc(b1-2)Man(a1-6)]Man(b1-4)GlcNAc(b1-4)[Fuc(a1-6)]GlcNAc
# In short: as §1
# [9] = target: Gal(b1-4)GlcNAc(b1-3)Gal(b1-4)GlcNAc(b1-3)Gal(b1-4)GlcNAc(b1-3)Gal(b1-4)GlcNAc(b1-2)[Gal(b1-4)GlcNAc(b1-3)Gal(b1-4)GlcNAc(b1-3)Gal(b1-4)GlcNAc(b1-3)Gal(b1-4)GlcNAc(b1-6)]Man(a1-6)[Gal(b1-4)GlcNAc(b1-3)Gal(b1-4)GlcNAc(b1-3)Gal(b1-4)GlcNAc(b1-3)Gal(b1-4)GlcNAc(b1-2)Man(a1-3)]Man(b1-4)GlcNAc(b1-4)[Fuc(a1-6)]GlcNAc
# In short: as §1
# [10] = target: Gal(b1-4)GlcNAc(b1-3)Gal(b1-4)GlcNAc(b1-3)Gal(b1-4)GlcNAc(b1-3)Gal(b1-4)GlcNAc(b1-3)Gal(b1-4)GlcNAc(b1-2)Man(a1-3)[Gal(b1-4)GlcNAc(b1-3)Gal(b1-4)GlcNAc(b1-3)Gal(b1-4)GlcNAc(b1-3)Gal(b1-4)GlcNAc(b1-3)Gal(b1-4)GlcNAc(b1-2)Man(a1-6)]Man(b1-4)GlcNAc(b1-4)GlcNAc
# In short: as §1
# [11] = target: Gal(b1-4)GlcNAc(b1-3)Gal(b1-4)GlcNAc(b1-3)Gal(b1-4)GlcNAc(b1-3)Gal(b1-4)GlcNAc(b1-3)Gal(b1-4)GlcNAc(b1-2)Man(a1-3)[Gal(b1-4)GlcNAc(b1-3)Gal(b1-4)GlcNAc(b1-3)Gal(b1-4)GlcNAc(b1-3)Gal(b1-4)GlcNAc(b1-3)Gal(b1-4)GlcNAc(b1-2)Man(a1-6)]Man(b1-4)GlcNAc(b1-4)[Fuc(a1-6)]GlcNAc
# In short: as §1
# [12] = target: Gal(b1-4)GlcNAc(b1-3)Gal(b1-4)GlcNAc(b1-3)Gal(b1-4)GlcNAc(b1-3)Gal(b1-4)GlcNAc(b1-3)Gal(b1-4)GlcNAc(b1-2)[Gal(b1-4)GlcNAc(b1-3)Gal(b1-4)GlcNAc(b1-3)Gal(b1-4)GlcNAc(b1-3)Gal(b1-4)GlcNAc(b1-3)Gal(b1-4)GlcNAc(b1-6)]Man(a1-6)[Gal(b1-4)GlcNAc(b1-3)Gal(b1-4)GlcNAc(b1-3)Gal(b1-4)GlcNAc(b1-3)Gal(b1-4)GlcNAc(b1-3)Gal(b1-4)GlcNAc(b1-2)Man(a1-3)]Man(b1-4)GlcNAc(b1-4)[Fuc(a1-6)]GlcNAc
# In short: as §1
# [13] = target: Gal(b1-4)GlcNAc(b1-3)Gal(b1-4)GlcNAc(b1-3)Gal(b1-4)GlcNAc(b1-3)Gal(b1-4)GlcNAc(b1-3)Gal(b1-4)GlcNAc(b1-3)Gal(b1-4)GlcNAc(b1-2)Man(a1-3)[Gal(b1-4)GlcNAc(b1-3)Gal(b1-4)GlcNAc(b1-3)Gal(b1-4)GlcNAc(b1-3)Gal(b1-4)GlcNAc(b1-3)Gal(b1-4)GlcNAc(b1-3)Gal(b1-4)GlcNAc(b1-2)Man(a1-6)]Man(b1-4)GlcNAc(b1-4)GlcNAc
# In short: as §1
# [14] = target: Gal(b1-4)GlcNAc(b1-3)Gal(b1-4)GlcNAc(b1-3)GalNAc
# In short: as §1
# [15] = target: Gal(b1-4)GlcNAc(b1-3)Gal(b1-4)GlcNAc(b1-3)[Gal(b1-4)GlcNAc(b1-3)Gal(b1-4)GlcNAc(b1-6)]GalNAc
# In short: as §1
# [16] = target: Gal(b1-4)GlcNAc(b1-3)Gal(b1-4)GlcNAc(b1-6)[Gal(b1-3)]GalNAc
# In short: as §1
# [17] = target: Gal(b1-4)GlcNAc(b1-3)Gal(b1-4)[Fuc(a1-3)]GlcNAc(b1-3)Gal(b1-4)[Fuc(a1-3)]GlcNAc
# In short: as §1
# [18] = target: Gal(b1-4)GlcNAc(b1-3)GalNAc
# In short: as §1
# [19] = target: Gal(b1-4)GlcNAc(b1-3)[Fuc(a1-3)GlcNAc(b1-6)]Gal(b1-4)Glc
# In short: as §1
# [20] = target: Gal(b1-4)GlcNAc(b1-3)[Gal(b1-4)GlcNAc(b1-6)]Gal(b1-4)GlcNAc
# In short: as §1
# [21] = target: Gal(b1-4)GlcNAc(b1-3)[GlcNAc(b1-6)]Gal(b1-4)GlcNAc
# In short: as §1
# [22] = target: Gal(b1-4)GlcNAc(b1-6)Gal(b1-4)GlcNAc
# In short: as §1
# [23] = target: Gal(b1-4)GlcNAc(b1-6)GalNAc
# In short: as §1
# [24] = target: Gal(b1-4)GlcNAc(b1-6)[Gal(b1-3)]GalNAc
# In short: as §1
# [25] = target: Gal(b1-4)GlcNAc(b1-6)[Gal(b1-4)GlcNAc(b1-3)]GalNAc
# In short: as §1
# Gal(b1-4)GlcNAc6P = target: Gal(b1-4)GlcNAc6P
# In short: as §1
# Gal(b1-6)Gal = target: Gal(b1-6)Gal
# In short: as §1
# Gal3S(b1-3)GalNAc = target: Gal3S(b1-3)GalNAc
# In short: as §1
# Gal3S(b1-3)GlcNAc = target: Gal3S(b1-3)GlcNAc
# In short: as §1
# [26] = target: Gal3S(b1-3)[Fuc(a1-4)]GlcNAc
# In short: as §1
# Gal3S(b1-4)Glc = target: Gal3S(b1-4)Glc
# In short: as §1
# Gal3S(b1-4)Glc6S = target: Gal3S(b1-4)Glc6S
# In short: as §1
# Gal3S(b1-4)GlcNAc = target: Gal3S(b1-4)GlcNAc
# In short: as §1
# [27] = target: Gal3S(b1-4)[Fuc(a1-3)]Glc6S
# In short: as §1
# [28] = target: Gal3S(b1-4)[Fuc(a1-3)]GlcNAc
# In short: as §1
# [29] = target: Gal3S(b1-4)[Fuc(a1-3)]GlcNAc6S
# In short: as §1
# Gal3S4S(b1-4)GlcNAc = target: Gal3S4S(b1-4)GlcNAc
# In short: as §1
binder,measurement,setting,value
B1,glycan array binding signal (z-score),[1],-1.41
same,glycan array binding signal (z-score),[2],1.61
same,glycan array binding signal (z-score),[3],0.054
same,glycan array binding signal (z-score),[4],-0.935
same,glycan array binding signal (z-score),[5],1.74
same,glycan array binding signal (z-score),[6],2.44
same,glycan array binding signal (z-score),[7],-0.738
same,glycan array binding signal (z-score),[8],0.558
same,glycan array binding signal (z-score),[9],0.774
same,glycan array binding signal (z-score),[10],0.358
same,glycan array binding signal (z-score),[11],0.943
same,glycan array binding signal (z-score),[12],-0.071
same,glycan array binding signal (z-score),[13],2.19
same,glycan array binding signal (z-score),[14],1.72
same,glycan array binding signal (z-score),[15],0.593
same,glycan array binding signal (z-score),[16],-0.384
same,glycan array binding signal (z-score),[17],0.953
same,glycan array binding signal (z-score),[18],-0.434
same,glycan array binding signal (z-score),[19],0.214
same,glycan array binding signal (z-score),[20],-0.811
same,glycan array binding signal (z-score),[21],0.867
same,glycan array binding signal (z-score),[22],0.69
same,glycan array binding signal (z-score),[23],-0.071
same,glycan array binding signal (z-score),[24],-0.818
same,glycan array binding signal (z-score),[25],-0.18
same,glycan array binding signal (z-score),Gal(b1-4)GlcNAc6P,0.45
same,glycan array binding signal (z-score),Gal(b1-6)Gal,0.447
same,glycan array binding signal (z-score),Gal3S(b1-3)GalNAc,0.101
same,glycan array binding signal (z-score),Gal3S(b1-3)GlcNAc,-0.319
same,glycan array binding signal (z-score),[26],-0.284
same,glycan array binding signal (z-score),Gal3S(b1-4)Glc,0.126
same,glycan array binding signal (z-score),Gal3S(b1-4)Glc6S,0.154
same,glycan array binding signal (z-score),Gal3S(b1-4)GlcNAc,-0.106
same,glycan array binding signal (z-score),[27],2.61
same,glycan array binding signal (z-score),[28],1.1
same,glycan array binding signal (z-score),[29],0.76
same,glycan array binding signal (z-score),Gal3S4S(b1-4)GlcNAc,-0.43

# Pulled one by one from above:
binder,measurement,setting,value
B1,glycan array binding signal (z-score),[27],2.61
same,glycan array binding signal (z-score),Gal(b1-6)Gal,0.447
